At least one structure is not confirmed: it was looked up by name or label, or the drawing left a doubt.
Test system: Gram-positive bacteria (Staphylococcus aureus 6538)
Assay: 28-day double inoculation challenge test in sunscreen emulsion base, Gram-positive inoculum
Format: cell-based
Conditions: 0.75% active, 1.25% water in sunscreen emulsion base, pH 7; 28 days (7 days after re-inoculation)
Experimental: The test was conducted in sunscreen emulsion base, pH 7 (Table 3).
Method: The emulsion was formulated with 2% of the blend #1 or with the appropriate controls, plus water to add up to the 2% of the concentration in the emulsion.
Briefly, each tested sample was split into three containers to be challenged, respectively, with either of the three classes of common contaminants: Gram-positive bacteria, Gram-negative bacteria, and fungi. Accordingly, three types of inocula were prepared as outlined in the Table 4. The Gram-positive bacterial inoculum consisted of the single microorganism, while the Gram-negative bacterial inoculum and fungal inoculum, each, consisted of more than one species pooled together (Table 4).
The test samples were spiked with the microbial inoculum on days 0 and 21, with the final concentration of bacteria being 10^6 cfu/g and the final concentration of fungi being 10^5 cfu/g. Inoculated samples were incubated at ambient temperature. On days 2, 7, 21 and 28 the samples were plated to recover viable microorganisms. Letheen Agar was used for the recovery of bacteria and on Potato Dextrose Agar was used for the recovery of fungi.

Compound: OCCCO [1,3-Propanediol]
- plate counts recovered: 2.50 × × 10^2 cfu/g
